This note sets out measurements from the supplement of paper PMC8256030.

Assay [1] deals with SARS-CoV-2 -1 PRF reporter mCherry-FSE-GFP(-1). Description: mCherry (red) intensity as percent of control; higher = higher upstream reporter expression. Particulars: 10 µM; 24 h; HEK293T.
Assay [2] has the same test system. The experiment in a line: percent effect, decrease of GFP/mCherry ratio (-1 PRF reporter) relative to controls; higher = stronger frameshift inhibition. Conditions: 10 µM; 24 h; HEK293T.

Values joined by “and” are separate entries in the source; they are usually repeats but may differ in a detail not shown here. Identical values can stand only once. The list shows a part of the results. Single values are uncertain here, since repeats match poorly.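 HEK293T cells were given each compound shortly before transfection with a reporter in which red mCherry is followed by the SARS-CoV-2 frameshift element and then GFP in the −1 frame, so GFP appears only after frameshifting.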

The compound `O=c1c(I)c[nH]cc1I` [iopydone] displayed a mCherry in assay [1] of 107%. In assay [2], the percent effect was -3.48%.
In assay [1], `Nc1nc(O)c2ncn(CCC(CO)CO)c2n1` yielded a mCherry of 90%. For the same compound, the percent effect in assay [2] is 1.5%.
`CC(C(=O)O)c1ccc2c(c1)[nH]c1ccc(Cl)cc12` (configuration not stated) [carprofen] displayed a mCherry in assay [1] of 94.6%. Moreover, the percent effect in assay [2] is -2.4%.
For `CCN(CC)CCCC(C)Nc1c2ccc(Cl)cc2nc2ccc(OC)cc12` (configuration not stated) [mepacrine], in that order: 56.9% and -28.3%.
In assay [1], `OB1OCc2cc(F)ccc21` [Tavaborole] returned a mCherry of 80.9%. Moreover, the percent effect in assay [2] is -4.12%.
`CCc1cc(C(N)=S)ccn1` [ethionamide] returned a mCherry in assay [1] of 124%. Also, the percent effect in assay [2] amounted to 0.206%.
For `O=CN(O)CCCP(=O)(O)O` [fosmidomycin], in that order: 74.2% and -4.08%.
In assay [1], `C#Cc1c[nH]c(=O)[nH]c1=O` [eniluracil] came in with a mCherry of 73.1%. The percent effect in assay [2] turned out to be 1.37%.
In the same order, the values of `O=C(O)CCCN1CCC(O[C@@H](c2ccc(Cl)cc2)c2ccccn2)CC1` [Bepreve] are 120% and 0.384%.
In turn, `C[C@H]1O[C@@H](O[C@H]2[C@@H](O)C[C@H](O[C@H]3[C@@H](O)C[C@H](O[C@H]4CC[C@@]5(C)[C@H](CC[C@@H]6[C@@H]5C[C@@H](O)[C@]5(C)[C@@H](C7=CC(=O)OC7)CC[C@]65O)C4)O[C@@H]3C)O[C@@H]2C)C[C@H](O)[C@@H]1O` [digoxin] displayed a mCherry in assay [1] of 3350%. In assay [2], the percent effect was -20.2%.
In assay [1], `CCC(C(=O)O)c1ccc(N2Cc3ccccc3C2=O)cc1` (configuration not stated) [indobufen] had a mCherry of 77.8%. The percent effect in assay [2] was -5.59%.
In the same order, the values of `O=C1CN(/N=C/c2ncc(-c3ccc(Br)cc3)o2)C(=O)N1` [azumolene] are 53.2% and -2.16%.
In assay [1], `CCc1c2c(nc3ccc(OC(=O)N4CCC(N5CCCCC5)CC4)cc13)-c1cc3c(c(=O)n1C2)COC(=O)[C@]3(O)CC` returned a mCherry of 117%. Also, the percent effect in assay [2] was -0.182%.
For `O=C(O)Cc1ccc(CCNS(=O)(=O)c2ccc(Cl)cc2)cc1` [daltroban], in that order: 78% and -10.8%.
In assay [1], `CN[C@@H]1[C@H](O[C@H]2[C@H](O[C@H]3[C@H](O)[C@@H](O)[C@H](N=C(N)N)[C@@H](O)[C@@H]3N=C(N)N)O[C@@H](C)[C@]2(O)C=O)O[C@@H](CO)[C@H](O)[C@H]1O` came in with a mCherry of 109%. Moreover, the percent effect in assay [2] was -13.4%.
For `COc1cc([C@@H]2c3cc4c(cc3[C@@H](O[C@@H]3O[C@@H]5CO[C@@H](c6cccs6)O[C@H]5[C@H](O)[C@H]3O)[C@H]3COC(=O)[C@H]23)OCO4)cc(OC)c1O` [Vumon], in that order: 137% and 0.238%.
For `CCCCCCCC/C=C\CCCCCCCC(=O)NCc1ccc(O)c(OC)c1` [olvanil], in that order: 86.2% and -4.69%.
On to `O=C(CCCN1CC=C(n2c(=O)[nH]c3ccccc32)CC1)c1ccc(F)cc1` [droperidol], for which the mCherry in assay [1] worked out at 138%. Also, in assay [2], the percent effect was -4.49%.
With `CC(C)(Oc1ccc(Cl)cc1)C(=O)N1CSCC1C(=O)O` (configuration not stated) [timofibrate], in assay [1], the mCherry was found to be 80.7%. The percent effect in assay [2] was -8.26%.
In the same order, the values of `CN(C)CC[C@@H](c1ccc(Cl)cc1)c1ccccn1` [dexchlorphenamine] are 101% and -1.95%.
In turn, `O=C1C(O)=C(O)C(=O)C(O)=C1O` [tetroquinone] displayed a mCherry in assay [1] of 94.9%. In addition, in assay [2], the percent effect is -5.37%.
In the same order, the values of `O=[N+]([O-])c1ccc(/C=C/c2cccc(CO)n2)o1` [nifurpirinol] are 80.9% and -3.52%.
In the same order, the values of `C=CCN1C(=O)C(CC(C)C)NC1=S` (configuration not stated) [albutoin] are 117% and -11.7%.
In the same order, the values of `COc1ccc(C[C@H](N)C(=O)N[C@H]2[C@@H](O)[C@H](n3cnc4c(N(C)C)ncnc43)O[C@@H]2CO)cc1` are 128% and -11.3%.
On to `CCN(CC)CCOC(=O)C(Cc1cccc2ccccc12)CC1CCCO1` (mixture of isomers) [naftidrofuryl], for which the mCherry in assay [1] was found to be 112%. The percent effect in assay [2] is -2.38%.
In the same order, the values of `CC(=O)Oc1c(C)cc(OCC(O)CNC(C)C)c(C)c1C` (configuration not stated) [metipranolol] are 113% and -3.36%.
In the same order, the values of `CN1[C@@H]2CC[C@H]1C[C@@H](OC(=O)c1c[nH]c3ccccc13)C2` are 108% and -1.65%.
For `O=C(CCCCC(=O)Nc1c(I)cc(I)c(C(=O)O)c1I)Nc1c(I)cc(I)c(C(=O)O)c1I` [adipiodone], in that order: 96.4% and -6.21%.
In assay [1], `CCOC(=O)Nc1ccc2c(c1)N(C(=O)CCN1CCOCC1)c1ccccc1S2` [moracizine] yielded a mCherry of 108%. The percent effect in assay [2] is -5.36%.
For `CC(=O)Nc1c(I)c(NC(C)=O)c(I)c(C(=O)O)c1I` [sodium amidotrizoate], in that order: 124% and -0.577%.
In the same order, the values of `CC(N)CCCC(C)(C)O` (configuration not stated) are 105% and -3.38%.
In assay [1], `Oc1nc(O)c2cn[nH]c2n1` [oxipurinol] showed a mCherry of 90.5%. For the same compound, in assay [2], the percent effect was -5.9%.
For `CCC(C(=O)OCCN1CCOC(c2ccccc2)C1C)c1ccccc1` (configuration not stated) [fenbutrazate], in assay [1], the mCherry came to 74.9%. Also, the percent effect in assay [2] was -1.9%.
In the same order, the values of `COc1ccc(C(=O)c2ccccc2)c(O)c1` [oxybenzone] are 91.4% and -1.02%.
`CCCCCCCCCC(=O)N[C@H]1[C@H](Oc2c3cc4cc2Oc2ccc(cc2Cl)[C@@H](O[C@@H]2O[C@H](CO)[C@@H](O)[C@H](O)[C@H]2NC(C)=O)[C@@H]2NC(=O)[C@H](NC(=O)[C@@H]4NC(=O)[C@H]4NC(=O)[C@@H](Cc5ccc(c(Cl)c5)O3)NC(=O)[C@H](N)c3ccc(O)c(c3)Oc3cc(O)cc4c3)c3ccc(O)c(c3)-c3c(OC4O[C@H](CO)[C@@H](O)[C@H](O)[C@@H]4O)cc(O)cc3[C@@H](C(=O)O)NC2=O)O[C@H](CO)[C@@H](O)[C@@H]1O` (some centres not stated): in assay [1], the mCherry was determined as 100%. In assay [2], the percent effect is -2.14%.
Regarding `COC(=O)c1ccc2c(C(=Nc3ccc(N(C)C(=O)CN4CCN(C)CC4)cc3)c3ccccc3)c(O)[nH]c2c1` [Nintedanib], the mCherry in assay [1] turned out to be 106%. Also, the percent effect in assay [2] is -1.81%.
For `CCOC(=O)Nc1nc2ccccc2[nH]1` [lobendazole], in that order: 102% and 0.837%.
The compound `C=CCc1ccccc1OCC(O)CNC(C)C` (configuration not stated) [alprenolol] showed a mCherry in assay [1] of 103%. Besides, the percent effect in assay [2] is -2.92%.
Compound `CO/N=C(\C(=O)N[C@@H]1C(=O)N2C(C(=O)O)=C(C[N+]3(C)CCCC3)CS[C@H]12)c1csc(N)n1` registered a mCherry in assay [1] of 119%. Further, the percent effect in assay [2] was -6.59%.
In the same order, the values of `O=S(=O)(O)c1ccc2[nH]c(-c3ccccc3)nc2c1` [ensulizole] are 90% and -1.15%.
On to `NS(=O)(=O)NCc1ccccc1` [benzylsulfamide], for which the mCherry in assay [1] worked out at 119%. Moreover, in assay [2], the percent effect was -4.12%.
As for `O=C(O)[C@@H]1CCCN1` [proline], the mCherry in assay [1] stood at 83.4%. Moreover, the percent effect in assay [2] is -5.23%.
In the same order, the values of `O=c1cc[nH]c(=S)[nH]1` are 98.8% and -4.79%.
In assay [1], `CN(C)CCC(c1ccc(Br)cc1)c1ccccn1` (configuration not stated) yielded a mCherry of 146%. Moreover, the percent effect in assay [2] stood at 0.28%.
In the same order, the values of `CN1C(=N)N(c2ccccc2)CC1=O` [azolimine] are 123% and -0.228%.
In assay [1], `NC(N)=NS(=O)(=O)c1ccc(N)cc1` showed a mCherry of 89%. Also, in assay [2], the percent effect is -2.68%.
`N#Cc1cc(NC(=O)C(=O)O)c(Cl)c(NC(=O)C(=O)O)c1` [lodoxamide] gave a mCherry in assay [1] of 95.9%. Moreover, in assay [2], the percent effect stood at 0.158%.
In the case of `O=C(/C=C/C=C/c1ccc2c(c1)OCO2)N1CCCCC1`, the mCherry in assay [1] is 128%. The percent effect in assay [2] is -8.72%.
In assay [1], `CC1(C)O[C@@H]2C[C@H]3[C@@H]4C[C@H](F)C5=CC(=O)C=C[C@]5(C)[C@H]4[C@@H](O)C[C@]3(C)[C@]2(C(=O)CO)O1` [Nasalide] returned a mCherry of 113%. Further, in assay [2], the percent effect was -7.78%.
`CO[C@@H]1[C@@H](OC(=O)c2ccc(C)[nH]2)[C@@H](O)[C@@H](Oc2ccc3c(O)c(NC(=O)c4c[nH]c(C(=O)Nc5c(O)c6ccc(O[C@H]7OC(C)(C)[C@H](OC)[C@@H](OC(=O)c8ccc(C)[nH]8)[C@H]7O)c(C)c6oc5=O)c4C)c(=O)oc3c2C)OC1(C)C` [coumamycin] gave a mCherry in assay [1] of 1100%. Besides, the percent effect in assay [2] was -21%.
In the same order, the values of `Cn1c(=O)c2c(ncn2CC(O)CO)n(C)c1=O` (configuration not stated) [diprophylline] are 104% and -2.94%.
In the same order, the values of `CC(C)(Oc1ccccc1)C(=O)OCCN1CCOCC1` [promolate] are 105% and -6.21%.
In the same order, the values of `CN(C)CCCN1c2ccccc2Sc2ccccc21` [promazine] are 114% and -7.95%.
In turn, `O=S1(=O)CCN(CN2CCS(=O)(=O)NC2)CN1` [taurolidine] had a mCherry in assay [1] of 70%. Also, in assay [2], the percent effect is -1.95%.
For `CCN1CCC(=C2c3ccccc3CCc3ccccc32)C1C` (configuration not stated) [piroheptine], in that order: 98.3% and 1.45%.
Consider `O=C(O)C(Cc1cc(I)c(O)c(I)c1)c1ccccc1` (configuration not stated) [pheniodol], for which the mCherry in assay [1] worked out at 85.9%. For the same compound, the percent effect in assay [2] was -1.95%.
In the same order, the values of `CCCCCCCCCCCCOS(=O)(=O)[O-].[Na+]` [Sodium lauryl sulfate] are 92.2% and -0.215%.
In the same order, the values of `COC(=O)Nc1nc2cc([S+]([O-])c3ccccc3)ccc2[nH]1` (configuration not stated) [Oxfendazole] are 82.5% and -2.93%.
In the same order, the values of `CN(C)CCC=C1c2ccccc2C(C)(C)c2ccccc21` [melitracen] are 97.9% and 2.02%.
As for `CC(=O)Nc1ccc(OC(C)=O)cc1` [diacetamate], the mCherry in assay [1] is 111%. The percent effect in assay [2] is 2.13%.
`CC(C)(O/N=C(\C(=O)N[C@@H]1C(=O)N2C(C(=O)[O-])=C(C[n+]3ccccc3)CS[C@H]12)c1csc(N)n1)C(=O)O` [Ceftazidime]: the mCherry in assay [1] was 61.5% and 78.5%. For the same compound, the percent effect in assay [2] was -2.39% and -0.974%.
